Taken from: PubChem BioAssay AID652243 (Drosophila RNAi Screening Center, 2013)

Screen: 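Fly regulators of androgen-dependent reporter output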 (primary screen)
Cells: Drosophila S2R+ cells
Reagents: long dsRNA against Drosophila genes
Duration: 72 h (48 h, then 24 h hormone)
Conditions: synthetic androgen R1881 at 10 nM for 24 h
Measurement: 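Per-well raw luminescence of the androgen-driven firefly reporter and of the Renilla control, two replicates each, without normalisation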
Reading the numbers: firefly reporter light: higher = more light from androgen-responsive reporter; Renilla control light: higher = more constitutive control signal (cell number, transfection)
Active means: 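Across duplicate plates, a knock-down whose log firefly/Renilla ratio shifted a set fold down or up from the GFP/LacZ control mean was a hit; the downward cut appears as both 1.5 and 3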
Calls: active = hit: reporter lowered or raised; inactive = no hit
In all, the deposit lists about 24,000 reagents; below is a random part of those with a known target gene and a result. Of all reagents, 246 (1%) were called active. 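Plates not normalised; calls are printed but the firefly/Renilla ratio behind them is not deposited; fold cut for lowering reported inconsistently.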 Raw values vary from plate to plate and are shown uncorrected. Not given: the amount of reagent.

no.	Gene	dsRNA	firefly reporter light, replicate 1	firefly reporter light, replicate 2	Renilla control light, replicate 1	Renilla control light, replicate 2	outcome
1	PPO1	DRSC05929	1.54e6	6.89e5	1.38e6	6.76e5	inactive
2	CG3526	DRSC17240	3.85e5	4.31e5	2.96e5	2.43e5	inactive
3	CG3526	DRSC18636	4.25e5	3.48e5	4.59e6	3.80e6	inactive
4	CG3526	DRSC24423	7.83e5	7.24e5	1.27e6	1.44e6	inactive
5	Alp6	DRSC06710	9.90e5	1.05e6	1.63e6	2.05e6	inactive
6	Alp6	DRSC36858					inactive
7	mrj	DRSC22592	8.87e5	6.59e5	5.74e5	5.15e5	inactive
8	mrj	DRSC25295	3.88e5	3.13e5	5.14e5	4.53e5	inactive
9	dcma	DRSC00246	6.02e5	5.96e5	6.62e5	5.48e5	inactive
10	dcma	DRSC00338	1.34e5	1.04e5	1.16e6	9.29e5	inactive
11	Pak	DRSC12602	20464	20612	1.69e5	1.20e5	inactive
12	Pak	DRSC23302	5.13e5	5.70e5	1.31e6	1.45e6	inactive
13	Pak	DRSC36687					inactive
14	Pak	DRSC36688					inactive
15	Prx6a	DRSC00565	8.57e5	9.41e5	3.59e6	2.57e6	inactive
16	knrl	DRSC23245	8.44e5	8.11e5	1.30e6	1.07e6	inactive
17	knrl	DRSC28310	4.31e5	7.75e5	1.68e6	2.59e6	inactive
18	CG18744	DRSC15381	82345	82947	1.96e6	1.93e6	inactive

The list goes on, starting with the last 4 of the part before.
no.	Gene	dsRNA	firefly reporter light, replicate 1	firefly reporter light, replicate 2	Renilla control light, replicate 1	Renilla control light, replicate 2	outcome
15	Prx6a	DRSC00565	8.57e5	9.41e5	3.59e6	2.57e6	inactive
16	knrl	DRSC23245	8.44e5	8.11e5	1.30e6	1.07e6	inactive
17	knrl	DRSC28310	4.31e5	7.75e5	1.68e6	2.59e6	inactive
18	CG18744	DRSC15381	82345	82947	1.96e6	1.93e6	inactive
19	CG10051	DRSC05959	91681	1.24e5	1.79e6	2.01e6	inactive
20	Dhc62B	DRSC08655	89744	1.04e5	8.99e5	1.13e6	inactive
21	CG16985	DRSC08501	1.04e5	1.19e5	1.31e6	1.19e6	inactive
22	Syt1	DRSC00156	2.60e5	98935	4.49e5	3.00e5	inactive
23	Syt1	DRSC00157	3.12e5	2.81e5	1.44e6	1.20e6	active
24	Syt1	DRSC00158	2.30e5	1.44e5	2.39e5	1.02e5	inactive
25	Syt1	DRSC00840	8.08e5	8.72e5	3.07e6	2.21e6	inactive
26	Syt1	DRSC22077	7.03e5	6.61e5	2.08e6	1.98e6	inactive
27	Syt1	DRSC27456	2.59e5	3.14e5	8.93e5	8.91e5	inactive
28	CG5787	DRSC02895	9.80e5	7.60e5	1.55e6	1.80e6	inactive
29	CG5787	DRSC28731	5.19e5	7.70e5	1.43e6	1.41e6	inactive
30	Tango10	DRSC19807	1.34e5	1.05e5	1.08e6	8.08e5	inactive
31	Tango10	DRSC26535	3.47e5	2.43e5	5.09e5	3.82e5	inactive
32	Nepl16	DRSC14650	1.73e5	1.11e5	1.82e6	1.49e6	inactive
33	CG42613	DRSC13332	28559	41399	1.83e5	1.67e5	inactive
34	CG42613	DRSC14769	3.11e5	2.34e5	3.46e6	3.22e6	inactive
35	CG42613	DRSC15802	85437	68667	6.54e5	6.05e5	inactive
36	CG42613	DRSC22613	8.04e5	7.36e5	1.37e6	1.03e6	inactive
37	CG42613	DRSC25089	6.26e5	1.03e6	4.88e5	9.72e5	inactive
38	CG42613	DRSC26862	4.26e5	3.30e5	7.18e5	5.62e5	inactive
39	ena	DRSC05779	2.04e5	72746	3.54e5	2.91e5	inactive
40	ena	DRSC07610	1.01e6	7.89e5	1.49e6	1.03e6	inactive
41	ena	DRSC25393	7.07e5	6.46e5	5.75e5	4.07e5	inactive
